# Results published in article PMC6362833 (ACS chemical neuroscience, 2017).
# What was measured:
# AC8 = AC8 (Homo sapiens, UniProt P40145); assay: CaM-stimulated AC8 activity in membrane preparations; type: biochemical
# AC1 = AC1 (Homo sapiens, UniProt Q08828); assay: CaM-stimulated AC1 activity in membrane preparations; type: biochemical; conditions: read-out: AC1 % inhibition
structure (smiles),measurement,setting,value
"CC(C)(C)CC(C)(C)c1ccc(OCCOCC[N+](C)(C)Cc2ccccc2)cc1 [benzethonium, Benzethonium chloride]",potency against AC8 compared with AC1,AC8,slightly more potent against AC8 than AC1
same,inhibition at 100 µM,AC8; read-out: AC8 % inhibition,100 ± 1%
same,inhibition at 100 µM,AC1,85 ± 1%
